# Data from PubChem BioAssay AID602313 (National Center for Advancing Translational Sciences (NCATS), 2012).
# Values joined by “and” are separate entries in the source; they are usually repeats but may differ in a detail not shown here. Equal values may be shown once. Among all 390,000 compounds or so, about 760 (0.19%) were called active. This list was built around the results that the source calls inconclusive (neither active nor inactive); the mix of calls is not that of the screen. The call rests on the fitted dose curve; in most records, active means well fitted inhibition curve with a large enough effect; inconclusive means small, poorly fitted or top-dose-only effect; inactive means flat fitted curve, though single readings scatter. Potencies of inconclusive entries are doubtful fits and often do not repeat.
# Assay: qHTS for Inhibitors of Vif-A3F Interactions: qHTS; further: nearly all actives have a fitted effect of over 65% in size; on activity, negative = active: % of control where 0% means no effect
# Conditions: HeLa A3F-eYFP + Vif (tagged APOBEC3F with the HIV-1 protein that degrades it), YFP fluorescence increase; series mostly up to 46.1 µM; activity, negative = active: at the top concentration
# Summary of the method: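 HeLa cells stably expressing A3F-eYFP plus Vif, plated and incubated overnight at 37 deg C, then exposed to compounds overnight at 37 deg C. Blocked degradation read as raised yellow fluorescence (Ex 488/Em 500-530).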
# Potency means the concentration at half of the fitted maximal effect.
SMILES,"activity, negative = active",Potency
CS(=O)(=O)c1ccccc1C(=O)N(CCc1ccccc1)Cc1ccccc1,inactive: 4.73%,–
CC1CN(C(=O)c2ccn(C)n2)CC(C)O1 (centres undefined),–,"inconclusive: 10 µM [inhibitor, partial curve, poor fit]"
Cc1[nH]c2ccccc2c1C(c1ccccc1)c1ccc(Cl)s1 (centres undefined),inactive: 5.43%,–
CCOc1ccc(C(=O)N2CCN(c3cccc(C)c3C)CC2)cc1,inactive: 0.344%,–
COc1cccc(NS(=O)(=O)c2ccc3c(c2)[C@H]2C=CC[C@H]2[C@@H](c2ccccc2Cl)N3)c1,–,"inconclusive: 35.5 µM [inhibitor, single point]"
C=CCSc1nnc(NC(=O)Cn2cnc3c2c(=O)n(C)c(=O)n3C)s1,–,"inconclusive: 3.16 µM [inhibitor, single point]"
Cc1[nH]c2ccccc2c1N=Nc1cc(C(=O)O)cc(C(=O)O)c1,inactive: 18.3%,–
O=C(CSc1nc2ccccc2o1)Nc1nccs1,–,"inconclusive: 3.98 µM [inhibitor, single point]"
CNc1c([N+](=O)[O-])cnn1-c1ccc(Cl)cc1Cl,inactive: 8.31%,–
O=C(Nc1ccc(F)c(F)c1)C1CCCN(S(=O)(=O)c2cccc3nonc23)C1 (centres undefined),–,"inconclusive: 31.6 µM [inhibitor, single point] and inconclusive: 2.24 µM [inhibitor, full curve, poor fit]"
CC(=O)c1c(O)c(C)c(O)c2c1OC1=CC(=O)C(C(C)=O)C(=O)[C@@]12C (some centres undefined),–,"inconclusive: 15.8 µM [inhibitor, partial curve, poor fit]"
CSc1nc(O)c(C(c2ccc(F)cc2)c2c(O)nc(SC)[nH]c2=O)c(=O)[nH]1,–,"inconclusive: 25.1 µM [inhibitor, single point]"
Cc1cc(/C=C2\NC(=O)NC2=O)c(C)n1-c1ccc(N2CCOCC2)cc1,–,"inconclusive: 35.5 µM [inhibitor, single point]"
O=C1NC[C@H](Cc2ccccc2)N(C[C@H]2CCCN2C[C@H](Cc2ccccc2)N2C[C@H](Cc3ccc(O)cc3)N(CC3CCCCCC3)C(=O)C2=O)C1=O,–,"inconclusive: 28.2 µM [inhibitor, single point]"
Cc1cc2nc3c(=O)n(C)c(=O)n(C)c3nc2cc1N=CN(C)C,–,"inconclusive: 35.5 µM [inhibitor, single point]"
OC(COc1cccc2ccccc12)CN1CCN(c2ccc(Cl)cc2)CC1 (centres undefined),–,"inconclusive: 35.5 µM [inhibitor, single point]"
Cc1ccc(CN2CCN(/N=C/c3ccco3)CC2)c(C)c1,–,"inconclusive: 20 µM [inhibitor, single point]"
CC(C)(C)C1CCc2nc(NC(=O)Cc3ccc(Cl)cc3)sc2C1 (centres undefined),–,"inconclusive: 25.1 µM [inhibitor, single point]"
COCCNC(=S)N/N=C/c1ccc(-c2ccc([N+](=O)[O-])cc2)o1,–,"inconclusive: 17.8 µM [inhibitor, partial curve, poor fit]"
Cc1cc(C)c2cc3c(N)c(C(=O)N4CCOCC4)sc3nc2c1,–,"inconclusive: 35.5 µM [inhibitor, single point]"
C/C(CCC1CC(C)OC1=O)=N\NC(N)=S (centres undefined),–,"inconclusive: 28.2 µM [inhibitor, single point]"
CCN(CC)CCCNC(=O)c1oc2c(c1C)-c1nn(Cc3ccc(Cl)cc3)cc1CC2,–,"inconclusive: 35.5 µM [inhibitor, single point]"

SMILES,"activity, negative = active",Potency
N#C/C(=C\c1ccc(N2CCOCC2)o1)c1ccccc1,–,"inconclusive: 28.2 µM [inhibitor, single point]"
CN1CCC2(CC1)C1CN(C)CC=C1C(C#N)=C(N)C2(C#N)C#N (centres undefined),–,"inconclusive: 35.5 µM [inhibitor, single point]"
COc1ccc(NCC(O)Cn2c(C)c(C)c3ccccc32)cc1 (centres undefined),–,"inconclusive: 5.62 µM [inhibitor, partial curve, poor fit]"
c1coc(C2Nc3ccccc3C3OCCC23)c1 (centres undefined),inactive: 0.729%,–
O=C(Cc1cccs1)N/N=C/C=C\c1ccco1,–,"inconclusive: 35.5 µM [inhibitor, single point]"
C/C(=N\NC(=S)Nc1c(C)cccc1C)c1ccc(OC(F)F)cc1,–,"inconclusive: 5.62 µM [inhibitor, single point]"
CCOC(=O)c1ccc(Nc2c(-c3ccc(O)cc3)nc3nc[nH]n23)cc1,–,"inconclusive: 35.5 µM [inhibitor, single point]"
CCCCN(C)CCNC(=O)c1cn(C)c(=O)c2c1c1ccccc1n2C,–,"inconclusive: 11.2 µM [inhibitor, partial curve, poor fit]"
Cn1sc2ccccc2c1=O,–,"inconclusive: 4.47 µM [inhibitor, single point]"
Cc1cccn2cc(-c3ccc(NC(=O)Cc4ccccc4)cc3)nc12,–,"inconclusive: 35.5 µM [inhibitor, single point]"
O=C(NC(O)C(=O)c1ccccc1)c1cccs1 (centres undefined),–,"inconclusive: 35.5 µM [inhibitor, single point]"
COc1ccccc1-[n+]1c(C)cc(/C=C2\Sc3ccccc3N2C)cc1C,–,"inconclusive: 3.16 µM [inhibitor, partial curve, poor fit]"
CCC(/C=N/NC(=O)C(N)=O)CC,–,"inconclusive: 5.62 µM [inhibitor, single point]"
Cc1ccc2nc(-c3ccccn3)c(Nc3ccc(F)cc3)n2c1,–,"inconclusive: 28.2 µM [inhibitor, single point]"
O=C(O)c1ccc2c(c1)C(=O)/C(=C/c1ccccc1)C2=O,–,"inconclusive: 15.8 µM [inhibitor, single point]"
CCOC(=O)/C=C1\CC(C(=O)OCC)Oc2c(OC)cccc21 (centres undefined),–,"inconclusive: 35.5 µM [inhibitor, single point]"
NC(=S)N/N=C/c1ccccc1OC(=O)c1cc2ccccc2oc1=O,–,"inconclusive: 3.16 µM [inhibitor, partial curve, poor fit]"
COc1ccc(C(O)(CCC(C)C)C(CN2CCOCC2)c2ccc(Cl)cc2)cc1 (centres undefined),–,"inconclusive: 15.8 µM [inhibitor, single point]"
Cc1nccn1Cc1cccc2ccccc12,inactive: -4.1%,–
Cc1nn2c(NCc3ccccn3)c3c(nc2c1-c1ccccc1)CCC3,inactive: 2.58%,–
COc1ccc(N=C2S/C(=C\c3ccc(OC(C)C(=O)O)c(OC)c3)C(=O)N2CCc2c[nH]c3ccccc23)cc1 (centres undefined),–,"inconclusive: 3.55 µM [inhibitor, single point]"
CCN(CC)C(=O)c1cc2c(=O)n3cccc(C)c3nc2s1,inactive: 3.61%,–

SMILES,"activity, negative = active",Potency
O=C(Cc1c(F)c(F)c(F)c(F)c1F)Nc1nc(-c2ccccc2)cs1,–,"inconclusive: 28.2 µM [inhibitor, single point]"
Cc1cc(C(=O)OCC(=O)NC2CCCC2)c2ccccc2n1,–,"inconclusive: 31.6 µM [inhibitor, single point]"
CC(=O)c1sc(N/N=C\c2cccc(Br)c2)nc1C,–,"inconclusive: 12.6 µM [inhibitor, single point]"
N#Cc1cc(Oc2cccc3cccnc23)c(-n2nnc3ccccc32)cc1C#N,–,"inconclusive: 17.8 µM [inhibitor, partial curve, poor fit]"
N#C/C(=C/c1ccc(OC(=O)c2ccc(Br)s2)cc1)c1nc2ccccc2[nH]1,–,"inconclusive: 35.5 µM [inhibitor, single point]"
Cc1sc2nc3ccc(NCc4ccco4)nn3c(=O)c2c1C,–,"inconclusive: 35.5 µM [inhibitor, single point]"
CC(=O)Nc1ccc(NC(=O)C(C)OC(=O)CNS(=O)(=O)/C=C/c2ccc(C)cc2)cc1 (centres undefined),–,"inconclusive: 22.4 µM [inhibitor, single point]"
Cn1nc([N+](=O)[O-])nc1N1CCN(c2ccc(F)cc2)CC1,–,"inconclusive: 10 µM [inhibitor, partial curve, poor fit]"
COC(=O)c1c(NC(=O)c2ccc(S(=O)(=O)N3CC(C)OC(C)C3)cc2)sc2c1CCN(C)C2 (centres undefined),–,"inconclusive: 35.5 µM [inhibitor, single point]"
c1ccc(-c2cn(-c3ccccc3)c3ncnc(N4CCCCC4)c23)cc1,inactive: 5.45%,–
Cc1cc(C)nc(NNC2=CC(=O)CC(C)(C)C2)n1,–,"inconclusive: 6.31 µM [inhibitor, single point]"
CCOC(=O)c1cnc2ccc(F)cc2c1Nc1ccc2c(c1)OCCO2,–,"inconclusive: 3.98 µM [inhibitor, single point]"
CCC(CC)c1nn2c(N)c(/C=C3\C=Nc4ccccc43)c(=O)nc2s1,–,"inconclusive: 35.5 µM [inhibitor, single point]"
COc1ccccc1NC(=O)c1ccc(Br)c(S(=O)(=O)N2CCCC2)c1,–,"inconclusive: 6.31 µM [inhibitor, single point]"
CN1/C(=C\C=C2/C(=O)Oc3ccccc3C2=O)C(C)(C)c2ccccc21,–,"inconclusive: 3.55 µM [inhibitor, partial curve, poor fit]"
Cc1ncc(CO)c(/C=N/NC(=O)c2cccc(S(=O)(=O)N3CCCC3)c2)c1O,inactive: 5.89%,–
Cc1cc(C)c(NC(=O)CS)c(Cl)c1,–,"inconclusive: 15.8 µM [inhibitor, single point]"
CC(=O)c1ccc(N2CCN(C(=O)C3CCN(S(=O)(=O)c4cccc5nonc45)CC3)CC2)cc1,inactive: 2.05%,–
C=CCn1c(C)c(/C=C/c2cc[n+](C)cc2)c2ccccc21,–,"inconclusive: 0.562 µM [inhibitor, partial curve, poor fit]"
Cc1ccc(-c2nc(C(=O)NCCCN(C)C)cc3c2[nH]c2ccccc23)cc1,–,"inconclusive: 15.8 µM [inhibitor, single point]"

# Sorted by molar mass (low to high): part of the list above.
SMILES,"activity, negative = active",Potency
Cc1sc2nc3ccc(NCc4ccco4)nn3c(=O)c2c1C,–,"inconclusive: 35.5 µM [inhibitor, single point]"
CC(=O)c1sc(N/N=C\c2cccc(Br)c2)nc1C,–,"inconclusive: 12.6 µM [inhibitor, single point]"
c1ccc(-c2cn(-c3ccccc3)c3ncnc(N4CCCCC4)c23)cc1,inactive: 5.45%,–

# Retrieved by structure from the entries so far (two):
SMILES,"activity, negative = active",Potency
NC(=S)N/N=C/c1ccccc1OC(=O)c1cc2ccccc2oc1=O,–,"inconclusive: 3.16 µM [inhibitor, partial curve, poor fit]"
CC(=O)c1ccc(N2CCN(C(=O)C3CCN(S(=O)(=O)c4cccc5nonc45)CC3)CC2)cc1,inactive: 2.05%,–
